According to patent US9764002B2, “Dosage regimen for therapeutic method” (MADELEINE PHARMACEUTICALS PTY LTD, priority 2013, dated 2017):
At least one peptide structure holds a part that was inferred or is arguable (an end, a ring closure or a residue). Peptide text beside a SMILES is read from it.

Experiments:
[1] = Cardiac output in ADCHF and Stable CHF patients treated with VSDL; assay type: in vivo, human; details: regression of cardiac output on time, repeated measures; t=3.16; p≦0.05
[2] = Renal parameters (eGFR, 99Tc-MAG3 clearance, urine output, FENa) in CHF patients treated with VSDL; assay type: in vivo, human; details: for fractional extraction of sodium (FENa): 6-12 hrs post treatments; for 24-hour urine output: Stable CHF group

CC(C)C[C@H](NC(=O)[C@H](C)NC(=O)[C@H](C)NC(=O)CNC(=O)[C@H](C)NC(=O)[C@H](CCC(=O)O)NC(=O)[C@H](CCC(=O)O)NC(=O)[C@H](CC(N)=O)NC(=O)[C@@H]1CCCN1C(=O)[C@H](CCC(=O)O)NC(=O)[C@H](CO)NC(=O)[C@H](CC(C)C)NC(=O)[C@@H](NC(=O)[C@H](CCC(N)=O)NC(=O)[C@@H]1CCCN1C(=O)[C@@H]1CCCN1C(=O)[C@@H](NC(=O)[C@@H](NC(=O)[C@@H](N)CCC(=O)O)C(C)C)C(C)C)C(C)C)C(=O)N[C@@H](CO)C(=O)N1CCC[C@H]1C(=O)N[C@@H](CC(C)C)C(=O)N1CCC[C@H]1C(=O)N[C@@H](CCC(=O)O)C(=O)N[C@H](C(=O)N1CCC[C@H]1C(=O)N1CCC[C@H]1C(=O)N[C@@H](Cc1c[nH]c2ccccc12)C(=O)N[C@H](C(=O)NCC(=O)N[C@@H](CCC(=O)O)C(=O)N[C@H](C(=O)N[C@@H](CO)C(=O)N1CCC[C@H]1C(=O)N[C@@H](C)C(=O)N[C@@H](CCC(N)=O)C(=O)N[C@@H](CCCNC(=N)N)C(=O)O)C(C)C)[C@@H](C)O)C(C)C [VSDL] (H-EVVPPQVLSEPNEEAGAALSPLPEVPPWTGEVSPAQR-OH; N-terminus and C-terminus assumed)
increase in cardiac output on average above baseline [1]: 0.000472 L/min
fractional extraction of sodium (FENa) ([2]; 10 ng/ml group, baseline 2.2±0.3%): 3.3±0.8%
fractional extraction of sodium (FENa) ([2]; 20 ng/ml group, baseline 1.6±0.3%): 2.4±0.9%
eGFR ([2]; ADCHF patients, treated, untreated 59±3, not significant): 60±2 mL/min/1.73 m^2
24-hour urine output ([2]; 10 ng/kg): 2898±335 mls
24-hour urine output ([2]; 20 ng/kg): 3028±302 mls
eGFR ([2]; Stable CHF patient group, 10 ng/kg, baseline 37±11, p≦0.05): 42±15 mL/min/1.73 m^2
eGFR ([2]; Stable CHF patient group, 20 ng/kg, baseline 37±11, p≦0.05): 45±9 mL/min/1.73 m^2
increase in 99Tc-MAG3 clearances ([2]; VSDL treated group, pre- vs post-treatment): 17%
